Here are results for one substance from paper PMC4694698.

The test deals with T1, VE-cadherin (Vascular Endothelial-cadherin) (human (endogenous in HUVEC)) (UniProt P33151).
T1 sequence: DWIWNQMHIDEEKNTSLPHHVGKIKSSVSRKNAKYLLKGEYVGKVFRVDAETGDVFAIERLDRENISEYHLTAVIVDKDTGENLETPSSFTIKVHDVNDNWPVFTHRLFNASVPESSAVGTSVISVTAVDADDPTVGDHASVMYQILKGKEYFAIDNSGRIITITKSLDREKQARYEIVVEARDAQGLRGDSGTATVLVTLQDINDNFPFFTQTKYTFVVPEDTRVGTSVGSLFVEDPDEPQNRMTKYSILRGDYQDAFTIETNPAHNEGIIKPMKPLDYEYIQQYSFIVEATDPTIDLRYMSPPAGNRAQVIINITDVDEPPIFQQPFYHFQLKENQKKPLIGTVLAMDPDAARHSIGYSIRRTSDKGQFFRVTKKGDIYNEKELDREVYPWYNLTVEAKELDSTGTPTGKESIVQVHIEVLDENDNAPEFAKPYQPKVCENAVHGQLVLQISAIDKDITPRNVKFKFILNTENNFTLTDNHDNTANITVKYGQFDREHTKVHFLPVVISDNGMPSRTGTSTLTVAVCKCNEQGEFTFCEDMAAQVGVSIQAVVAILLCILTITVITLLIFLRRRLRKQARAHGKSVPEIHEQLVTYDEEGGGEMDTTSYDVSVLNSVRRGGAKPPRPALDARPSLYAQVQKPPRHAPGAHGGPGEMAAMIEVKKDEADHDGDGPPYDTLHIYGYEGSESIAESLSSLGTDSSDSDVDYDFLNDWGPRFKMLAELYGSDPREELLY
Put plainly: co-IP; HUVEC treated with PAI-039 (25 μM) or solvent (DMSO 0.1%) for four hours; NP-40 lysis buffer (25 mM Tris, 100 mM NaCl, 10 mM MgCl2, 10% glycerol, 1% Nonidet P-40, pH 7.4); lysate incubated with 2 μg mouse monoclonal VE-cadherin antibody and protein G-sepharose at 4°C; five washes; western blot. A general note: Immunoblotting shows a protein as a band on a membrane.

Results are given in words; binding and its absence hold for the method and conditions named. Binding seen in cells or lysates may run through a third protein. Binding can be weak; no strength is given.

For the substance α-catenin (human (endogenous in HUVEC)), the binding result was “binds”.
